Primary screen of a compound library

Protein sequences, listed by entry. Tags and fused reporters are not part of them.
UniProt E9BF75, entry or part of it: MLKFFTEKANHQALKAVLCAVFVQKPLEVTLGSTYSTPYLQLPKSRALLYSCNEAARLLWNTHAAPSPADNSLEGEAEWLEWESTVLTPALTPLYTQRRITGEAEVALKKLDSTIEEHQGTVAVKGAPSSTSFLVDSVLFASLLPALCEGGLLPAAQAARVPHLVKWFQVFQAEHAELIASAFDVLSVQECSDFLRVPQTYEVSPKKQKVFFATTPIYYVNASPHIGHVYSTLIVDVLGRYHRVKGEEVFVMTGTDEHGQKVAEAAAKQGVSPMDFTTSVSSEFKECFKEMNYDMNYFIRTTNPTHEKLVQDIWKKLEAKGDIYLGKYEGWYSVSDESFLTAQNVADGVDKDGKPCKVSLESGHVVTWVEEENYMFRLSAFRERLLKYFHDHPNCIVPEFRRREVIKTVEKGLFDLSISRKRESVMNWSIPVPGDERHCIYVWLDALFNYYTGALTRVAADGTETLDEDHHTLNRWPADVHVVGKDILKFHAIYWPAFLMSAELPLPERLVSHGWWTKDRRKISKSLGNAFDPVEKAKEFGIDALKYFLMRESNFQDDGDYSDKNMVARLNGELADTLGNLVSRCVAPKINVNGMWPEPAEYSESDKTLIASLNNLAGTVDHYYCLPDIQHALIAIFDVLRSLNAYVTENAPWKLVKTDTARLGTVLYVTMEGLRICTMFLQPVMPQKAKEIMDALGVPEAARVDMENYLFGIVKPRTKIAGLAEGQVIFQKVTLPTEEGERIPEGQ

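Primary screen of methionyl-tRNA synthetase; the read-out is not stated. Target: Methionyl-tRNA synthetase (putative), Leishmania donovani (UniProt E9BF75). The test concentration is not given. The values are filed as inhibition. About 68,000 compounds were tested under these conditions; 0.035% (about 24) showed 50% or more at least once.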

All values are in %.
The record does not define 0% and 100%; most values in the screen are far below 50% and negative numbers occur (in some assays of this library far below -100).
The compounds are a random part of those screened.

SMILES | Inhibition
Cn1ccnc1SCc1nc(C(C)(C)NC(=O)OC(C)(C)C)no1 | 7.805
O=C(c1ccoc1)N1CCN(Cc2ccccc2F)CC1 | 4.244
CC(C)Oc1ncccc1CNC(=O)N1CCCC1c1ccsc1 (centres undefined) | 14.46
O=c1oc(-c2ccc(F)cc2)nn1CC1CCCCO1 (centres undefined) | 2.484
c1ccc(CN2CCOC3(CCCN(c4nccs4)C3)C2)cc1 (centres undefined) | 13.33
COCCOc1cccc(CNCc2ccc(-n3cncn3)nc2)c1 | 17.09
COCCNS(=O)(=O)c1cccc(CSC)c1 | -18.61
O=C(COCc1ccccc1)N1CCCn2cncc2C1 | -1.535
c1ccc(OCCNC2=NCCCN2)cc1 | 11.43
Cn1ccc(C(=O)NC2CCC23CCN(C(=O)N2CCCC2)CC3)c1 (centres undefined) | 15.15
CCC1CCCN(Cc2nc3ccccc3c(=O)[nH]2)C1 (centres undefined) | 9.712
Cc1nn(C)c2cn(C(C)C(=O)NCc3cccc(F)c3)nc12 (centres undefined) | -21.86
Cc1cc(C)n(CC2CN(CC(=O)Nc3cccnc3)CCO2)n1 (centres undefined) | 12.18
COc1ncc(-c2nccn2-c2ccccc2CN2CCOCC2)cn1 | 5.944
CC(C(=O)N1CCCN(c2ncccc2C#N)CC1)n1cccn1 (centres undefined) | 14.96
CC(=O)N1CCC(c2nnc3ccc(C(=O)NCCN(C)C)cn23)C1 (centres undefined) | 13.45
Cc1cc2c(=O)n3c(nc2s1)CCN(C(=O)c1cn(C)nc1C)CC3 | 5.178
CC1CN(C)c2ccccc2CN1C(=O)c1cscn1 (centres undefined) | 16.39
N#Cc1cccnc1NCc1ccc(S(=O)(=O)NCC2CCCO2)cc1 (centres undefined) | -1.761
CC(C)c1nnc2n1CCN(Cc1cccc3c1OCCO3)C2 | 4.336
CCN1CC(C(=O)NCCn2cccc2)CC1=O (centres undefined) | 16.88
CCCc1cc(C(=O)N(Cc2cccnc2)C2CCCCC2)[nH]n1 | 17.63
Cc1nc(CNC(=O)c2cc(COc3ccccc3F)[nH]n2)n[nH]1 | 5.322
CN1C(=O)C2(CCN(Cc3cccnc3)CC2)c2cccc(F)c21 | 12.78
COCc1ccc(C(=O)N2CCC(Oc3ccccc3)(C(=O)O)CC2)o1 | 12.93
COc1ccc([C@@H]2CN(c3cnccn3)C[C@H]2N(C)C)cc1 | 8.099
Cn1cccc1C(=O)N[C@@H]1CN(Cc2cccs2)[C@@H]2COC[C@@H]21 | 7.407
CC(=O)Nc1nc(-c2ccc(F)cc2)c[nH]1 | 1.863
COc1cc(C(=O)N2CC(Oc3ccccc3Cl)C2)ccn1 | 19.24
CN1CCCC2(CCN(Cc3cncn3C3CCCCC3)C2)C1=O (centres undefined) | 16.08
Cc1ccnc(OCC(=O)N2CCCC2)n1 | 15.77
O=S(=O)(C1CC1)N1CCC2(CC1)CN(Cc1ccccn1)CCO2 | 2.186
COC(=O)Cn1c(=O)nc2n1C(=O)N(c1ccc(F)cc1)C2 | 9.48
CCc1cc(=O)n(CC(=O)N2CCC(C)CC2)c(-c2cccc(F)c2)n1 | 17.28
c1cncc(OC2CCN(CCn3cc4ccccc4n3)CC2)c1 | 10.53
CCc1noc(CN(C)CCC(=O)Nc2ccc(Cl)cc2)n1 | 16.67
O=C(N[C@H]1COC[C@@H]1N1CCCC1)c1csc(-c2cccs2)n1 | 21.59
CCC(NC(=O)CC(F)(F)F)c1ccccc1OCC(=O)N1CCCC1 (centres undefined) | 14.72
O=C(CCc1nccs1)N1CCC(N2CCNC2=O)CC1 | 12.32
c1ccc(OCCNc2ncnc3sc4c(c23)CCNC4)cc1 | 21.6
Cn1ccnc1CNc1c(F)cccc1-n1cccn1 | 4.869
CN(C)CCO[C@H]1CN(Cc2cccc(C#N)c2)[C@@H]2COC[C@H]12 | 16.32
COc1ccc(C(C#N)NC(=O)Cc2ccc(F)c(F)c2)c(OC)c1 (centres undefined) | 11.08
O=C1CCCN1C1CCCN(CCn2cc(Cl)cn2)C1 (centres undefined) | 16.72
COCc1cccc(NC(=O)NCc2ncc(C)c(OC)c2C)c1 | 7.639
Cc1nc(CN2CCCC(NCCOc3ccccc3)C2)no1 (centres undefined) | 7.042
Cc1nc(-c2c(C)noc2C)cc(C2CCN(CC(=O)N(C)C)CC2)n1 | 9.969
O=C(C1CC=CC1)N1CCC2(CCC(=O)N2Cc2cccc(F)c2)CC1 | 18.57

Some entries from above, unchanged:

SMILES	Inhibition
O=C(C1CC=CC1)N1CCC2(CCC(=O)N2Cc2cccc(F)c2)CC1	18.57
CCCc1cc(C(=O)N(Cc2cccnc2)C2CCCCC2)[nH]n1	17.63
Cc1nn(C)c2cn(C(C)C(=O)NCc3cccc(F)c3)nc12 (centres undefined)	-21.86
CCN1CC(C(=O)NCCn2cccc2)CC1=O (centres undefined)	16.88
Cc1cc(C)n(CC2CN(CC(=O)Nc3cccnc3)CCO2)n1 (centres undefined)	12.18
O=C(COCc1ccccc1)N1CCCn2cncc2C1	-1.535

Measurements from “University of Dundee, Small-Polar-MMV Screening Library” (2021), ChEMBL document CHEMBL3988442.